According to the supplement of paper PMC9233669:
Variants at the background level are over-represented here.

How the values were obtained:
[1] = test system: biotinyl-Leu-oxazolone; test: self-aminoacylation, catalytic enhancement (BLO) (fold over background); higher = more active; k-Seq, kA / k0A0; sequences stand for … in GGGAAUGGAUCCACAUCUACGAAUUC…UUCACUGCAGACUUGACGAAGCUG
Procedure, shortened: (§1)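 Mutagenized RNA pools with a 21-nt variable region (0.43 μM) reacted with each biotinyl-aminoacyl-oxazolone at 2–1250 μM. Reactions ran in 50 μL HEPES/NaCl/KCl/MgCl2/CaCl2 buffer with 5% acetonitrile, pH 6.9–7.0, for 90 minutes at room temperature. Streptavidin-captured RNA was quantified by triplicate qPCR and Illumina sequencing, and per-sequence fraction reacted was fit to a pseudo-first-order model with 1000 bootstraps. Catalytic enhancement is median kA divided by the uncatalyzed rate, the low-activity peak of a bimodal Gaussian fit.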

[2] = test system: biotinyl-Ile-oxazolone; test: self-aminoacylation, catalytic enhancement (BIO) (fold over background); higher = more active; k-Seq, kA / k0A0; sequences stand for … in GGGAAUGGAUCCACAUCUACGAAUUC…UUCACUGCAGACUUGACGAAGCUG
Procedure, shortened: as §1

[3] = test system: biotinyl-Phe-oxazolone; test: self-aminoacylation, catalytic enhancement (BFO) (fold over background); higher = more active; k-Seq, kA / k0A0; sequences stand for … in GGGAAUGGAUCCACAUCUACGAAUUC…UUCACUGCAGACUUGACGAAGCUG
Procedure, shortened: as §1

[4] = test system: biotinyl-Trp-oxazolone; test: self-aminoacylation, catalytic enhancement (BWO) (fold over background); higher = more active; k-Seq, kA / k0A0; sequences stand for … in GGGAAUGGAUCCACAUCUACGAAUUC…UUCACUGCAGACUUGACGAAGCUG
Procedure, shortened: as §1

[5] = test system: biotinyl-Val-oxazolone; test: self-aminoacylation, catalytic enhancement (BVO) (fold over background); higher = more active; k-Seq, kA / k0A0; sequences stand for … in GGGAAUGGAUCCACAUCUACGAAUUC…UUCACUGCAGACUUGACGAAGCUG
Procedure, shortened: as §1

[6] = test system: biotinyl-Met-oxazolone; test: self-aminoacylation, catalytic enhancement (BMO) (fold over background); higher = more active; k-Seq, kA / k0A0; sequences stand for … in GGGAAUGGAUCCACAUCUACGAAUUC…UUCACUGCAGACUUGACGAAGCUG
Procedure, shortened: as §1

ACACACUUCAAGCAGUCGGUC [Fam1B.1 aminoacylation ribozyme variant]
self-aminoacylation [1]: 1.18
self-aminoacylation [2]: 1.36
self-aminoacylation [3]: 1.46
self-aminoacylation [4]: 1.01
self-aminoacylation [5]: 1.09
self-aminoacylation [6]: 1.35

ACACACUUCGAGCAAUCGGUC [Fam1B.1 aminoacylation ribozyme variant]
self-aminoacylation [1]: 1.74
self-aminoacylation [2]: 1.39
self-aminoacylation [3]: 1.51
self-aminoacylation [4]: 1.38
self-aminoacylation [5]: 1.58
self-aminoacylation [6]: 1.35

ACACUUCAAACAAUCGGUCUG [Fam1A.1 aminoacylation ribozyme variant]
self-aminoacylation [1]: 2.16
self-aminoacylation [2]: 1.7
self-aminoacylation [3]: 75.9
self-aminoacylation [4]: 33.3
self-aminoacylation [5]: 1.43
self-aminoacylation [6]: 1.57

ACGUUUGCUAAUAGUAGCAAG [Fam3.1 aminoacylation ribozyme variant]
self-aminoacylation [1]: 1.46
self-aminoacylation [2]: 1.62
self-aminoacylation [3]: 1.86
self-aminoacylation [4]: 1.98
self-aminoacylation [5]: 1.36
self-aminoacylation [6]: 1.47

ACGUUUGCUAAUAGUCGCUAG [Fam3.1 aminoacylation ribozyme variant]
self-aminoacylation [1]: 1.28
self-aminoacylation [2]: 1.28
self-aminoacylation [3]: 1.69
self-aminoacylation [4]: 1.06
self-aminoacylation [5]: 1.24
self-aminoacylation [6]: 1.19

ACGUUUGCUAGUAGUCGCAAG [Fam3.1 aminoacylation ribozyme variant]
self-aminoacylation [1]: 0.784
self-aminoacylation [2]: 1.28
self-aminoacylation [3]: 1.61
self-aminoacylation [4]: 1.29
self-aminoacylation [5]: 1.16
self-aminoacylation [6]: 1

ACUACCCUGGUCAUCGAAUGA [Fam2.1 aminoacylation ribozyme variant]
self-aminoacylation [1]: 0.952
self-aminoacylation [2]: 1.15
self-aminoacylation [3]: 0.648
self-aminoacylation [4]: 0.479
self-aminoacylation [5]: 1.27
self-aminoacylation [6]: 1.63

ACUCACCUAGUUCAUCGGGUG [Fam2.2 aminoacylation ribozyme variant]
self-aminoacylation [1]: 3.86
self-aminoacylation [2]: 2.87
self-aminoacylation [3]: 19.7
self-aminoacylation [4]: 3.85
self-aminoacylation [5]: 3.36
self-aminoacylation [6]: 3.46

AGGUUUGCUAAUAGUCGCACG [Fam3.1 aminoacylation ribozyme variant]
self-aminoacylation [1]: 1.75
self-aminoacylation [2]: 1.32
self-aminoacylation [3]: 1.86
self-aminoacylation [4]: 1.49
self-aminoacylation [5]: 1.23
self-aminoacylation [6]: 1.66

AGUACCUUGGUCAUCGAGUGA [Fam2.1 aminoacylation ribozyme variant]
self-aminoacylation [1]: 6.37
self-aminoacylation [2]: 4.3
self-aminoacylation [3]: 19
self-aminoacylation [4]: 8.17
self-aminoacylation [5]: 4.07
self-aminoacylation [6]: 6.27

AGUCACCUAGGUCCUCGGGUG [Fam2.2 aminoacylation ribozyme variant]
self-aminoacylation [1]: 6.54
self-aminoacylation [2]: 5.66
self-aminoacylation [3]: 37.5
self-aminoacylation [4]: 9.19
self-aminoacylation [5]: 4.64
self-aminoacylation [6]: 6.34

AUAACCCUGCUCAUCGAGUGA [Fam2.1 aminoacylation ribozyme variant]
self-aminoacylation [1]: 1.35
self-aminoacylation [2]: 1.25
self-aminoacylation [3]: 1.63
self-aminoacylation [4]: 1.69
self-aminoacylation [5]: 1.53
self-aminoacylation [6]: 1.48

AUAACCCUGGUCACCGAGUGA [Fam2.1 aminoacylation ribozyme variant]
self-aminoacylation [1]: 9.68
self-aminoacylation [2]: 4.78
self-aminoacylation [3]: 44
self-aminoacylation [4]: 10.2
self-aminoacylation [5]: 4.06
self-aminoacylation [6]: 8.82

AUAACCCUGGUCAUCGAUUGA [Fam2.1 aminoacylation ribozyme variant]
self-aminoacylation [1]: 1.02
self-aminoacylation [2]: 0.94
self-aminoacylation [3]: 0.646
self-aminoacylation [4]: 0.392
self-aminoacylation [5]: 0.974
self-aminoacylation [6]: 0.883

AUACACCUAGGUCAUCGGGAG [Fam2.2 aminoacylation ribozyme variant]
self-aminoacylation [1]: 1.65
self-aminoacylation [2]: 1.28
self-aminoacylation [3]: 0.298
self-aminoacylation [4]: 1.09
self-aminoacylation [5]: 0.949
self-aminoacylation [6]: 0.86

AUACACCUGGGUCAUCGGGUG [Fam2.2 aminoacylation ribozyme variant]
self-aminoacylation [1]: 4.41
self-aminoacylation [2]: 3.31
self-aminoacylation [3]: 14.8
self-aminoacylation [4]: 3.69
self-aminoacylation [5]: 3.54
self-aminoacylation [6]: 4.39

AUACUUGAAACAAUCGGUCUG [Fam1A.1 aminoacylation ribozyme variant]
self-aminoacylation [1]: 0.947
self-aminoacylation [2]: 0.932
self-aminoacylation [3]: 1.02
self-aminoacylation [4]: 0.899
self-aminoacylation [5]: 0.82
self-aminoacylation [6]: 0.912

AUACUUUAAACAAUCGGUCUG [Fam1A.1 aminoacylation ribozyme variant]
self-aminoacylation [1]: 0.715
self-aminoacylation [2]: 0.907
self-aminoacylation [3]: 1.16
self-aminoacylation [4]: 0.872
self-aminoacylation [5]: 0.893
self-aminoacylation [6]: 0.95

AUCCACAUAGGUCAUCGGGUG [Fam2.2 aminoacylation ribozyme variant]
self-aminoacylation [1]: 12.1
self-aminoacylation [2]: 5.82
self-aminoacylation [3]: 78.8
self-aminoacylation [4]: 8.91
self-aminoacylation [5]: 6.77
self-aminoacylation [6]: 10.1

AUCCACCUAAGUCAUCGGGUG [Fam2.2 aminoacylation ribozyme variant]
self-aminoacylation [1]: 14.4
self-aminoacylation [2]: 6.14
self-aminoacylation [3]: 90.6
self-aminoacylation [4]: 9.42
self-aminoacylation [5]: 7.25
self-aminoacylation [6]: 11.3

AUCCACCUAGGUCAUCUGGUG [Fam2.2 aminoacylation ribozyme variant]
self-aminoacylation [1]: 3.74
self-aminoacylation [2]: 2.26
self-aminoacylation [3]: 26.4
self-aminoacylation [4]: 2.77
self-aminoacylation [5]: 2.28
self-aminoacylation [6]: 2.77

AUGACCCUGGUCAUCGACUGA [Fam2.1 aminoacylation ribozyme variant]
self-aminoacylation [1]: 0.763
self-aminoacylation [2]: 0.662
self-aminoacylation [3]: 0.57
self-aminoacylation [4]: 0.76
self-aminoacylation [5]: 0.798
self-aminoacylation [6]: 0.657

AUGAGCCUGGUCAUCGAGUGA [Fam2.1 aminoacylation ribozyme variant]
self-aminoacylation [1]: 5.69
self-aminoacylation [2]: 3.82
self-aminoacylation [3]: 31.3
self-aminoacylation [4]: 6.33
self-aminoacylation [5]: 3.71
self-aminoacylation [6]: 5.66

AUGCACCUAGGUCAUAGGGUG [Fam2.2 aminoacylation ribozyme variant]
self-aminoacylation [1]: 1.73
self-aminoacylation [2]: 1.76
self-aminoacylation [3]: 1.88
self-aminoacylation [4]: 1.75
self-aminoacylation [5]: 1.53
self-aminoacylation [6]: 1.46

AUGUACCUAGGUCAUCGGGUG [Fam2.2 aminoacylation ribozyme variant]
self-aminoacylation [1]: 5.37
self-aminoacylation [2]: 3.62
self-aminoacylation [3]: 34
self-aminoacylation [4]: 5.8
self-aminoacylation [5]: 3.08
self-aminoacylation [6]: 5.49
